# Test results as given in patent publication US4517180A (Amano Pharmaceutical Co., Ltd, priority 1982, dated 1985).
# Assay: general procedure: solution-phase peptide synthesis; azide process (isoamyl nitrite); OSu active esters; acid anhydrides
# Settings: coupling step
row,Substance,step yield [%]
1,Boc-YMGWMD[NMeF]-NH2,85.5
2,Boc-YMGWMDF-NH2,70.8
3,Boc--Trp--Met--Asp--MePhe--NH2,65.6
4,Boc-MGWMD[NMeF]-NH2,63.5
5,pGlu--Asp--Tyr--Met--Gly-- Trp--Met--Asp--Phe--NH2,70.9

# Same assay, conditions: late stage modification step
row,Substance,step yield [%]
1,PEPTIDE1{[Glt].[Tyr(SO3H)].M.G.W.M.D.F.[am]}$$$$V2.0,65.9
2,Glt--Tyr--Met--Gly--Trp--Met--Asp--Phe--NH2,72.0
3,Pht--Tyr--Met--Gly--Trp--Met--Asp--Phe--NH2,71.6
4,PEPTIDE1{[Suc].[Tyr(SO3H)].M.G.W.M.D.F.[am]}$$$$V2.0,75.3
5,Pht--Tyr(SO3 H)--Met--Gly--Trp--Met--Asp--Phe--NH2,57.1
6,PEPTIDE1{[pGlu].D.[Tyr(SO3H)].M.G.W.M.D.F.[am]}$$$$V2.0,66.0
7,Glt--Asp--Tyr--Met--Gly--Trp--Met--Asp--Phe--NH2,94.6
8,PEPTIDE1{[Glt].D.[Tyr(SO3H)].M.G.W.M.D.F.[am]}$$$$V2.0,66.4
9,Suc-YMGWMD[NMeF]-NH2,70.8
10,PEPTIDE1{[Suc].[Tyr(SO3H)].M.G.W.M.D.[MePhe].[am]}$$$$V2.0,65.5

# Strings that start with PEPTIDE1 are HELM notation: dots part the residues, brackets hold end groups and non-standard residues. *1 amine or outer side, *2 acyl side, *3 side chain or, on linkers, in order; H or OH if unused. [ ]: non-standard residue; d: D form. The star is where a group is joined. NMeF = CN[C@@H](Cc1ccccc1)C(=O)O; Suc = O=C(CCC(=O)[*:2])[*:1]; Boc = CC(C)(C)OC(=O)*
